# Where “and” joins values, the source holds several entries; their conditions need not be identical. Equal values may be shown once. The list shows a part of the results.
# Key:
# Experiment in all cases: protein microarray (ProtoArray v5.0), streptavidin-Alexa Fluor 647
# Details in all cases: 3'-biotin; 20 mM Tris (pH 7.5), 5 mM MgCl2, 100 mM KCl, 0.1% Tween-20, A/T-rich and random oligonucleotide blockers; temperature not stated; high values mean tight binding
# [1] = test system: Phospholysine phosphohistidine inorganic pyrophosphate phosphatase (human)
# [2] = test system: Pleckstrin homology domain-containing family J member 1 (human)
# [3] = test system: Podoplanin (human)
# [4] = test system: Polyamine-modulated factor 1 (human)
# [5] = test system: Potassium voltage-gated channel subfamily E member 2 (human)
# [6] = test system: Pre-mRNA-splicing factor ISY1 homolog (human)
# [7] = test system: Prenylated Rab acceptor protein 1 (human)
# [8] = test system: Probable ATP-dependent RNA helicase DDX6 (human)
# [9] = test system: Probable ergosterol biosynthetic protein 28 (human)
# [10] = test system: Proteasome subunit beta type-2 (human)
# [11] = test system: Protein BEAN (human)
# [12] = test system: Protein BEX5 (human)
# [13] = test system: Protein CBFA2T1 (human)
# [14] = test system: Protein DGCR6L (human)
# [15] = test system: Protein Dr1 (human)
# [16] = test system: Protein FAM63B (human)
# [17] = test system: Protein NOXP20 (human)
# [18] = test system: Protein Niban (human)
# [19] = test system: Protein OSCP1 (human)
# [20] = test system: Protein PPRC1 (human)
sequence,measurement,setting,value
GGGGACAGGGGTATGGGGAGGGG [G4-3 biotinylated (CtG)],binding signal,[1],-0.317 z-score
same,binding signal,[2],-0.351 z-score
same,binding signal,[3],-0.332 z-score
same,binding signal,[4],-0.335 z-score
same,binding signal,[5],-0.29 z-score
same,binding signal,[6],-0.343 z-score
same,binding signal,[7],-0.326 z-score
same,binding signal,[8],7.51 z-score
same,binding signal,[9],-0.328 z-score
same,binding signal,[10],-0.333 z-score
same,binding signal,[11],-0.313 z-score
same,binding signal,[12],-0.341 z-score
same,binding signal,[13],-0.325 z-score
same,binding signal,[14],-0.344 z-score
same,binding signal,[15],-0.303 z-score
same,binding signal,[16],-0.326 z-score
same,binding signal,[17],-0.332 z-score
same,binding signal,[18],-0.319 z-score
same,binding signal,[19],-0.331 z-score
same,binding signal,[20],-0.334 z-score and -0.342 z-score

# Exported tab-delimited: entries from further up
sequence	measurement	setting	value
GGGGACAGGGGTATGGGGAGGGG [G4-3 biotinylated (CtG)]	binding signal	[16]	-0.326 z-score
same	binding signal	[17]	-0.332 z-score
